# Source: US20230320996A1, “NANOPARTICLES AND METHODS OF MANUFACTURE THEREOF” (Hillstream BioPharma, Inc., priority 2020, published 2023)
# Some of these results come from one statement about several compounds together.
# Tested on: BALB/c mice
# Experiment: Maximum tolerated dose, body weight reduction as response
# Format: in vivo
# Conditions: intraperitoneally, once a week for 3 weeks
# Description: Next, the maximum tolerated dose of salinomycin and salinomycin-loaded PLA based hybrid block copolymeric salinomycin nanoparticle was probed in BALB/c mice. Mice were administered the salinomycin loaded hybrid block copolymeric nanoparticles once a week for 3 weeks. The body weight reduction was observed as a phenotypic response. The dose-response of salinomycin and the salinomycin nanoparticle was observed by administration intraperitoneally (FIG. 7) and intravenously (FIG. 8). For intraperitoneal administration, mice were administered salinomycin and salinomycin loaded nanoparticles at 5 mg/kg, 7.5 mg/kg, 10 mg/kg. Further, only the salinomycin nanoparticles were administered at 12 mg/kg and 15 mg/kg, intraperitoneally. Three mice were probed at each dose for salinomycin and salinomycin loaded nanoparticle. For intravenous administration, mice were administered salinomycin and salinomycin loaded nanoparticles at 5 mg/kg. Only salinomycin nanoparticles were administered at 1 mg/kg, and 7.5 mg/kg. Further another group of salinomycin at 2.5 mg/kg was also tested. Three mice were probed at each dose for salinomycin and salinomycin loaded nanoparticle. It was observed that free salinomycin was tolerated up to a dose of 10 mg/kg and the salinomycin loaded nanoparticle was tolerated up to 15 mg/kg, when administered intraperitoneally. […]
smiles,measurement,value
CC[C@@H](C(=O)[C@@H](C)[C@@H](O)[C@H](C)[C@@H]1O[C@@H]([C@@H](CC)C(=O)O)CC[C@@H]1C)[C@H]1O[C@]2(C=C[C@@H](O)[C@]3(CC[C@@](C)([C@H]4CC[C@](O)(CC)[C@H](C)O4)O3)O2)[C@H](C)C[C@@H]1C [salinomycin],tolerated dose,up to 10 mg/kg
